Source: the supplement of paper PMC6078165

Tested on: HCC1143
Assay: relative JC-1 red fluorescence (viability) vs pre-drug, coculture with fibroblast (fraction); higher = more viable cancer cells
Description: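 JC-1 labelled TNBC cells cocultured 1:1 (1,500 cells each) with CellTrace Violet stained primary or stromal fibroblasts in 384-well plates in FluoroBrite medium, treated with one of 42 anticancer drugs at 0.1, 1, 10 or 100 uM. JC-1 red fluorescence (mitochondrial integrity in cancer cells only) was read by plate reader every 8 h for 72 h. Values are normalised to each well's pre-drug value. The stock of one drug was tenfold lower, so its dose labels may be too high.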

CCC1=C[C@@H]2CN(C1)Cc1c([nH]c3ccccc13)[C@@](C(=O)OC)(c1cc3c(cc1OC)N(C)[C@H]1[C@@](O)(C(=O)OC)[C@H](OC(C)=O)[C@]4(CC)C=CCN5CC[C@]31[C@@H]54)C2 [Vinorelbine]
relative JC-1 red fluorescence
Settings	8 h	16 h	24 h	32 h	40 h	48 h	56 h	64 h	72 h
10 µM, coculture fibroblast: C12385	0.8854	0.8408	0.7974	0.748	0.699	0.653	0.624	0.583	0.557
10 µM, coculture fibroblast: H6013	0.759	0.698	0.667	0.678	0.594	0.568	0.545	0.518	0.58
10 µM, coculture fibroblast: H6019	0.8782	0.8202	0.7776	0.73	0.6956	0.6626	0.62	0.588	0.565
10 µM, coculture fibroblast: H6076	0.813	0.8954	0.904	0.784	0.827	0.793	0.754	0.744	0.717
10 µM, coculture fibroblast: H6231	0.816	0.94	0.867	0.5905	0.762	0.719	0.7	0.658	0.616
10 µM, coculture fibroblast: HADF	0.729	0.6741	0.65126	0.6583	0.56	0.528	0.512	0.486	0.5536
10 µM, coculture fibroblast: HCFa	0.77	0.697	0.671	0.702	0.593	0.567	0.561	0.549	0.623
10 µM, coculture fibroblast: HCPF	0.8313	0.967	0.903	0.678	0.828	0.7707	0.7504	0.7226	0.678
10 µM, coculture fibroblast: HHSteC	0.835	0.795	0.775	0.767	0.685	0.658	0.63	0.602	0.634
10 µM, coculture fibroblast: HMF	0.852	0.949	0.947	0.763	0.879	0.85	0.815	0.795	0.762
10 µM, coculture fibroblast: HPFa	0.943	0.869	0.841	0.746	0.725	0.696	0.653	0.618	0.587
10 µM, coculture fibroblast: HUF	0.9246	0.87	0.83	0.769	0.731	0.686	0.649	0.616	0.576
10 µM, coculture fibroblast: Hs5	0.845	0.904	0.943	0.851	0.849	0.819	0.783	0.759	0.739
10 µM, coculture fibroblast: Hs27A	0.768	0.714	0.68	0.721	0.581	0.536	0.518	0.497	0.602
10 µM, coculture fibroblast: Hs343T	0.859	0.833	0.951	0.797	0.859	0.816	0.77	0.76191	0.7194
10 µM, coculture fibroblast: WS1	0.878	0.835	0.792	0.736	0.692	0.657	0.617	0.586	0.557
100 µM, coculture fibroblast: C12385	0.638	0.451	0.225	0.145	0.0957	0.0768	0.0543	0.0327	0.0261
100 µM, coculture fibroblast: H6013	0.551	0.322	0.24	0.187	0.152	0.139	0.106	0.0837	0.0297
100 µM, coculture fibroblast: H6019	0.727	0.514	0.334	0.214	0.152	0.129	0.0959	0.0724	0.056
100 µM, coculture fibroblast: H6076	0.708	0.679	0.598	0.579	0.42	0.395	0.348	0.315	0.311
100 µM, coculture fibroblast: H6231	0.688	0.571	0.396	0.418	0.277	0.249	0.207	0.172	0.152
100 µM, coculture fibroblast: HADF	0.577	0.405	0.294	0.232	0.195	0.184	0.154	0.134	0.0764
100 µM, coculture fibroblast: HCFa	0.54	0.343	0.218	0.164	0.118	0.1005	0.0699	0.0481	0.00612
100 µM, coculture fibroblast: HCPF	0.664	0.582	0.431	0.415	0.292	0.25	0.205	0.171	0.155
100 µM, coculture fibroblast: HHSteC	0.618	0.45	0.361	0.305	0.265	0.252	0.219	0.197	0.135
100 µM, coculture fibroblast: HMF	0.66	0.5924	0.467	0.461	0.294	0.249	0.195	0.162	0.145
100 µM, coculture fibroblast: HPFa	0.716	0.574	0.423	0.334	0.272	0.252	0.207	0.186	0.16
100 µM, coculture fibroblast: HUF	0.627	0.424	0.268	0.164	0.105	0.0876	0.0532	0.0574	0.0438
100 µM, coculture fibroblast: Hs5	0.648	0.532	0.384	0.342	0.22	0.178	0.137	0.106	0.0934
100 µM, coculture fibroblast: Hs27A	0.503	0.354	0.21	0.157	0.0762	0.0777	0.0492	0.0332	0.0237
100 µM, coculture fibroblast: Hs343T	0.6916	0.623	0.481	0.468	0.306	0.268	0.218	0.178	0.151
100 µM, coculture fibroblast: WS1	0.637	0.34	0.199	0.124	0.0774	0.0567	0.0583	0.0488	0.0191

Values are relative to the signal before dosing, not to a vehicle control; the signal also falls without drug.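 Fibroblast labels name human fibroblasts: mostly primary ones from tissues such as uterus (C12385, HUF), lung (H6013), bone (Hs27A), adrenal (HADF) and skin (WS1), plus mammary HMF and breast cancer-associated Hs343T. The cancer cells are basal-like or mesenchymal-like triple-negative breast cancer lines. The paper calls a changed response a hit when it shifts by more than 3x the replicate standard deviation. The tissue of the other fibroblasts is not given here.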
